{"source": "PubChem BioAssay AID720535", "about": "(National Center for Advancing Translational Sciences (NCATS), 2013)", "note": "About 420 (26%) of roughly 1,600 compounds were called active. The inconclusive results got no clear call from the source; some entries with a clear call stand among them for comparison. Calls follow the shape of the dose curve; as a rule, active = well fitted inhibition curve with a large enough effect; inconclusive = small, poorly fitted or top-dose-only effect; inactive = flat fitted curve, though single readings scatter. Where the call is inconclusive, the potency comes from a doubtful curve fit. Potency is read from the fitted curve at half-maximal effect.", "data": [{"assay": "qHTS for Inhibitors of TGF-b: Cytotox Counterscreen for Cherry Picks; also: nearly all actives have a fitted effect of over 70% in size", "settings": "HepG2 CAGA-GFP viability, ATP luminescence, 18 h, cells stimulated with TGF-beta, 500 pg/mL; activity, negative = cytotoxicity: at 46.1 µM (top of the series)", "procedure,_shortened": "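Toxicity towards HepG2 CAGA-GFP cells is assessed with CellTiter-Glo luminescence following an 18 h, 37 °C treatment with compound in the presence of 500 pg/mL TGF-beta.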", "values": [{"smiles": "Clc1nc(Cl)nc(N(c2ccccc2)c2ccccc2)n1", "Potency": "inconclusive: 3.26 µM [inhibitor, full curve, poor fit]"}, {"smiles": "Cc1ccc(COc2ccccc2-c2cc(C(=O)N/N=C/c3cccnc3)[nH]n2)cc1", "Potency": "inconclusive: 20.6 µM [inhibitor, partial curve]"}, {"smiles": "O=C(Nc1ccc(F)cc1)Nc1cc(OCC(F)(F)F)cc(OCC(F)(F)F)c1", "Potency": "inconclusive: 3.26 µM [inhibitor, full curve]"}, {"smiles": "O=C(N=Nc1c(O)[nH]c2ccc(Br)cc12)c1ccccc1-n1cccc1", "Potency": "inconclusive: 29.1 µM [inhibitor, single point]"}, {"smiles": "CC(C)C[C@@H](CN1CCCC1CN1C(=S)NC[C@@H]1Cc1ccc(O)cc1)N1C[C@H](Cc2ccc(O)cc2)N(CCc2ccccc2)C1=S", "note": "(stereo partly drawn)", "Potency": "inconclusive: 29.1 µM [inhibitor, single point]"}, {"smiles": "CC[C@]12c3[nH]c4ccc(Cl)cc4c3CCN1C(=O)[C@@H](CC(=O)NCc1cccc(C(F)(F)F)c1)C[C@@H]2C(=O)N1CCN(C(=O)c2ccco2)CC1", "Potency": "inconclusive: 20.6 µM [inhibitor, single point]"}, {"smiles": "CCC1CCCCN1S(=O)(=O)c1ccc(NC(=O)c2nc(S(C)(=O)=O)ncc2Cl)cc1", "note": "(stereo not drawn)", "Potency": "active: 6.51 µM"}, {"smiles": "COc1ccc(C(=O)NCCN(C)C)c2nc3ccccc3cc12", "Potency": "active: 4.61 µM"}, {"smiles": "Oc1ccccc1-c1n[nH]c(-c2ccccc2O)n1", "Potency": "inconclusive: 3.26 µM [inhibitor, full curve]"}, {"smiles": "O=C(c1ccc(Cl)c([N+](=O)[O-])c1)N1CCN(S(=O)(=O)c2ccc(Cl)cc2)CC1", "activity, negative = cytotoxicity": "inactive: -17.2%"}, {"smiles": "Cc1ccc2nc3c(c(Nc4ccc5c(c4)OCCO5)c2c1)CCC3", "Potency": "inconclusive: 16.4 µM [inhibitor, single point]"}, {"smiles": "CCc1nc(Nc2ccncc2)c2oc3ccccc3c2n1", "Potency": "inconclusive: 20.6 µM [inhibitor, single point]"}, {"smiles": "CC[C@]12c3[nH]c4cc(-c5ccco5)ccc4c3CCN1C(=O)[C@@H](CC(=O)NCc1cccc(C(F)(F)F)c1)C[C@@H]2C(=O)N1CCN(C(=O)C2CC2)CC1", "Potency": "inconclusive: 16.4 µM [inhibitor, single point]"}, {"smiles": "CN(C)CCC(=O)C(Cc1ccccc1)c1ccccc1", "note": "(stereo not drawn)", "Potency": "active: 14.6 µM"}, {"smiles": "COc1ccc2cc([C@H](C)C(=O)N(C)Cc3ccccc3N3CCCC3)ccc2c1", "Potency": "inconclusive: 18.4 µM [inhibitor, single point]"}, {"smiles": "Cc1sc2ncnc(N3CCC(C(=O)Nc4nc(-c5cccs5)cs4)CC3)c2c1C", "Potency": "inconclusive: 6.51 µM [inhibitor, full curve]"}, {"smiles": "Clc1ccc(Nc2nc(-c3cccs3)cs2)nc1", "Potency": "inconclusive: 29.1 µM [inhibitor, single point]"}, {"smiles": "Cc1cc(NC(=S)NC(=O)C2CC2)ccc1Br", "Potency": "active: 0.461 µM"}, {"smiles": "Cc1nc(-c2ccc(S(=O)(=O)N3CCCN(CCc4ccccc4)CC3)s2)cs1", "Potency": "inconclusive: 20.6 µM [inhibitor, single point]"}, {"smiles": "O=C(NCc1ccccc1)C1=C[C@H](c2ccc(C(F)(F)F)cc2)C[C@H](OCc2ccc(CO)cc2)O1", "activity, negative = cytotoxicity": "inactive: -13.7%"}, {"smiles": "Cc1cc(C)c2c(c1)cc(C)c1nnc(SCC(=O)Nc3ccc(S(=O)(=O)N4CCCCC4)cc3)n12", "activity, negative = cytotoxicity": "inactive: -11.7%"}, {"smiles": "COc1ccc(NC(=O)[C@@H]2CC=C[C@@H]3CCN(Cc4ccc(Cl)c(Cl)c4)C(=O)[C@@H]32)cc1", "activity, negative = cytotoxicity": "inactive: -21.8%"}, {"smiles": "CS(=O)(=O)c1ccc2nc(NC(=O)Nc3cccc(Cl)c3)sc2c1", "Potency": "inconclusive: 13 µM [inhibitor, partial curve]"}, {"smiles": "Cc1cccc(CN2CCCC(C(=O)c3ccc4c5c(cccc35)CC4)C2)n1", "note": "(stereo not drawn)", "Potency": "inconclusive: 18.4 µM [inhibitor, single point]"}, {"smiles": "COc1ccc([C@H]2CC(=O)C=C(/C=C/c3ccccc3)C2)cc1OC", "activity, negative = cytotoxicity": "inactive: -19.3%"}, {"smiles": "C/C(=N\\NC(=O)c1ccccc1OCCOc1ccccc1)c1ccccc1F", "Potency": "inconclusive: 29.1 µM [inhibitor, single point]"}, {"smiles": "CNC(=S)N/N=C/c1cc(C)n(-c2ccc(Cl)c(Cl)c2)c1C", "Potency": "inconclusive: 29.1 µM [inhibitor, single point]"}, {"smiles": "CCCCCCCN(c1ccccc1)[C@@H]1C[C@H]2CCCC(=O)N3CC[C@@H](C1)[C@@H]23", "Potency": "inconclusive: 18.4 µM [inhibitor, single point]"}, {"smiles": "COc1cc(C(=O)NCC(c2ccc(F)cc2)N2CCOCC2)ccc1OCc1ccccc1Cl", "note": "(stereo not drawn)", "Potency": "inconclusive: 23.1 µM [inhibitor, single point]"}, {"smiles": "OCC1OC(n2cnc3c(N4CCCC4)ncnc32)C(O)C1O", "note": "(stereo not drawn)", "Potency": "inconclusive: 18.4 µM [inhibitor, single point]"}, {"smiles": "CCOC(=O)C1CCN(C(=O)c2c(C)oc3c2C(=O)c2ccccc2C3=O)CC1", "Potency": "active: 5.17 µM"}, {"smiles": "O=C(Nc1ccc([N+](=O)[O-])cc1)Nc1ccc(Cl)cc1F", "Potency": "inconclusive: 5.8 µM [inhibitor, full curve]"}, {"smiles": "C[C@H](CO)N1C[C@H](C)[C@@H](CN(C)S(=O)(=O)c2ccc(Cl)cc2)Oc2ccc(NS(=O)(=O)c3ccccc3)cc2CC1=O", "activity, negative = cytotoxicity": "inactive: -11%"}, {"smiles": "CCC(C)Sc1ccc([C@@H]2[C@@H]3C(=O)N(CC)C(=O)[C@@H]3[C@]3(C(=O)OC)CCCCN23)cc1OC", "note": "(stereo partly drawn)", "activity, negative = cytotoxicity": "inactive: 1.95%"}, {"smiles": "CC1(C(=O)NCC2CCCCC2)CCN1C(=O)Cc1ccc(-c2ccccc2)cc1", "note": "(stereo not drawn)", "activity, negative = cytotoxicity": "inactive: -28.9%"}, {"smiles": "Cc1ccc(C(NC(=O)C2CCCCC2)c2c(O)ccc3ccccc23)cc1", "note": "(stereo not drawn)", "Potency": "inconclusive: 9.2 µM [inhibitor, partial curve]"}, {"smiles": "CN(CC(=O)Nc1cccc(S(=O)(=O)N2CCCC2)c1)CC(=O)Nc1ccc(Cl)c(C(F)(F)F)c1", "Potency": "inconclusive: 23.1 µM [inhibitor, single point]"}, {"smiles": "O=C(Nc1cccc(-c2csc(Nc3ccc(Cl)cc3)n2)c1)c1cc([N+](=O)[O-])cc(C(F)(F)F)c1", "Potency": "inconclusive: 9.2 µM [inhibitor, partial curve]"}, {"smiles": "CC(C)C[C@H]1CNC(=S)N1C[C@H]1CCCN1C[C@H](Cc1ccccc1)N1C[C@H](Cc2ccc(O)cc2)N(CC2CCCCCC2)C1=S", "Potency": "inconclusive: 29.1 µM [inhibitor, single point]"}, {"smiles": "O=C1C(Cl)=C(Nc2ccccc2)C(=O)c2ccccc21", "Potency": "active: 6.51 µM"}, {"smiles": "O=C1NC(c2cccc3ccccc23)Nc2ccccc21", "note": "(stereo not drawn)", "Potency": "inconclusive: 8.2 µM [inhibitor, partial curve]"}, {"smiles": "O=C(O)c1ccccc1NC(c1ccccc1)c1ccc2cccnc2c1O", "note": "(stereo not drawn)", "Potency": "inconclusive: 1.03 µM [inhibitor, full curve]"}, {"smiles": "CCOC(=O)c1cc([N+](=O)[O-])sc1NC(=O)c1ccc(S(=O)(=O)N2CC3(C)CC2CC(C)(C)C3)cc1", "note": "(stereo not drawn)", "activity, negative = cytotoxicity": "inconclusive: -24% [inhibitor]"}, {"smiles": "Cc1ccc(NCCC(=O)c2cccc([N+](=O)[O-])c2)cc1", "Potency": "inconclusive: 29.1 µM [inhibitor, single point]"}, {"smiles": "CCN(CC)C(=O)[C@H]1CC(CC(=O)NCc2cccc(C(F)(F)F)c2)C(=O)N2CCc3c([nH]c4ccccc34)[C@]12C", "note": "(stereo partly drawn)", "Potency": "inconclusive: 29.1 µM [inhibitor, single point]"}, {"smiles": "Cc1ccccc1CN(CC(=O)Nc1cccc([N+](=O)[O-])c1)S(=O)(=O)c1ccc(Cl)cc1", "Potency": "inconclusive: 18.4 µM [inhibitor, single point]"}, {"smiles": "Cc1ccc(Cc2c(-c3cccc(Cl)c3)nc3ccc(C)cn23)cc1", "Potency": "inconclusive: 23.1 µM [inhibitor, partial curve]"}, {"smiles": "C=CCNc1ncnc2c1[nH]c1ccc(C)cc12", "activity, negative = cytotoxicity": "inactive: -27.5%"}, {"smiles": "CCOC(=O)C1=C[C@@H](C(C)(C)C)N(S(=O)(=O)c2ccc(OC)cc2)[C@H]1c1ccccc1", "activity, negative = cytotoxicity": "inactive: -28.8%"}, {"smiles": "CCNc1nc(N)c(C(=O)c2ccc(Cl)s2)s1", "Potency": "inconclusive: 29.1 µM [inhibitor, single point]"}, {"smiles": "Cc1c(C(=O)N/N=C/c2ccc(N(C)C)cc2)[nH]c2ccc(Cl)cc12", "activity, negative = cytotoxicity": "inactive: -8.49%"}, {"smiles": "O=C(OC(C(=O)Nc1cc(Cl)cc(Cl)c1)c1ccccc1)C1=COCCO1", "note": "(stereo not drawn)", "Potency": "inconclusive: 29.1 µM [inhibitor, single point]"}, {"smiles": "COc1ccc(Nc2nccc(-c3cccc(N)c3)n2)cc1", "Potency": "active: 5.8 µM"}, {"smiles": "Cc1cccc(CS(=O)(=O)c2ncc(Cl)c(C(=O)Nc3c(C)cccc3C)n2)c1", "Potency": "active: 9.2 µM"}, {"smiles": "Cc1cc(OCCCC(=O)Nc2cccc(-n3cnnn3)c2)ccc1Cl", "Potency": "inconclusive: 16.4 µM [inhibitor, single point]"}, {"smiles": "Cc1ccc(C)c(S(=O)(=O)N2CCN(CC(=O)Nc3ccc([N+](=O)[O-])cc3)CC2)c1", "activity, negative = cytotoxicity": "inactive: -22.4%"}, {"smiles": "CCOC(=O)C1=CCN(S(=O)(=O)c2ccccc2F)C1c1cccc(Cl)c1", "note": "(stereo not drawn)", "activity, negative = cytotoxicity": "inactive: 2.52%"}, {"smiles": "C[C@@]12CCC=C[C@H]1[C@H](c1ccccc1Br)N(Cc1ccccc1)C2=O", "Potency": "inconclusive: 20.6 µM [inhibitor, single point]"}, {"smiles": "Cc1cccc(CCN2C(Nc3ccccc3)=NC[C@@H]2CC(C)C)c1", "Potency": "inconclusive: 29.1 µM [inhibitor, single point]"}, {"smiles": "CC(C)C[C@@H](CN1CCCC1CN1C(=S)NC[C@@H]1Cc1ccc(O)cc1)N1C[C@H](Cc2ccccc2)N(CC2CCCCCC2)C1=S", "note": "(stereo partly drawn)", "Potency": "inconclusive: 29.1 µM [inhibitor, single point]"}, {"smiles": "COc1ccccc1-n1cc([C@@H]2C[C@H]3CN(c4ccccc4)C(=O)[C@]34CCCN24)cn1", "Potency": "inconclusive: 2.59 µM [inhibitor, full curve]"}, {"smiles": "CN(Cc1ccccc1)C(=O)c1[nH]cnc1C(=O)Nc1cccc(Cl)c1", "Potency": "inconclusive: 23.1 µM [inhibitor, single point]"}, {"smiles": "COc1ccc(-c2[nH]c(-c3cc(OC)c4c(c3)OCO4)nc2-c2ccccc2)cc1", "Potency": "inconclusive: 13 µM [inhibitor, partial curve, poor fit]"}]}]}
